Data as given in PubChem BioAssay AID686938 (Drosophila RNAi Screening Center, 2013)
The screen tested about 23,000 reagents; this is an unselected part of those with a known target gene and a result. Of all reagents, 75 (0.33%) were called active. 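Raw plate signals without normalisation; calls rest on plate z-scores that were not deposited; ratio present for only 364 wells.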 Names joined by + are all predicted targets of the reagent. Not stated in the record: the dose of the treatment.

- Purpose: 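Fly genes required for calcium entry once internal stores are emptied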 (primary screen)
- Cell system: Drosophila S2R+ cells
- Knock-down reagent: long dsRNA against Drosophila genes, about 0.25 µg dsRNA per well, roughly 10,000 cells
- Duration: 5 days of knock-down before the calcium assay
- Treatment: thapsigargin (SERCA pump blocker) to empty calcium stores; entry signal taken 4 min after adding it
- Measurement: 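Duplicate raw fluo-4 intensities per well from a plate reader, at rest and four minutes after thapsigargin emptied calcium stores; entry-to-rest ratio filled for only some wells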
- Scale: calcium entry signal: higher = stronger calcium signal after store depletion; resting calcium signal: higher = higher resting calcium signal
- Call rule: 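Hit if the duplicate-averaged plate z-score for entry over resting signal is under −3; wells with weak total dye signal (Fmax z < −2) or more than 5 off-targets removed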
- Calls: active = strongly reduced calcium entry; inactive = no strong reduction

no.	gene knocked down	dsRNA	calcium entry signal, replicate 1 (fluorescence units)	calcium entry signal, replicate 2 (fluorescence units)	resting calcium signal, replicate 1 (fluorescence units)	resting calcium signal, replicate 2 (fluorescence units)	activity call
1	GstE8	DRSC06678	4.10e7	3.21e7	1.91e7	1.60e7	inactive
2	PDZ-GEF	DRSC03231	3.29e7	4.26e7	1.73e7	1.91e7	inactive
3	CG43737	DRSC19609	3.81e7	2.38e7	1.93e7	1.22e7	inactive
4	CG43737	DRSC19610	4.52e7	2.36e7	2.16e7	1.16e7	inactive
5	Lamtor1	DRSC10183	3.37e7	4.69e7	1.70e7	1.98e7	inactive
6	TM4SF	DRSC04661	2.64e7		1.21e7		inactive
7	CG6230	DRSC01989	4.14e7		1.99e7		inactive
8	mthl11	DRSC12779	2.55e7	3.86e7	1.30e7	1.74e7	inactive
9	wbl	DRSC07718	3.54e7	2.92e7	1.53e7	1.42e7	inactive
10	CG12116	DRSC17812	4.08e7	5.02e7	2.01e7	2.24e7	inactive
11	CG7829	DRSC16322	4.33e7	6.08e7	2.22e7	2.58e7	inactive
12	Sdb	DRSC06272	4.22e7	3.36e7	2.23e7	1.54e7	inactive
13	Sdb	DRSC06273	3.72e7	3.61e7	1.86e7	1.66e7	inactive
14	Sdb	DRSC07155	3.80e7	3.80e7	1.67e7	1.70e7	inactive
15	woc	DRSC15928	3.15e7	3.57e7	1.60e7	1.75e7	inactive
16	CG1307	DRSC12492	3.43e7	4.36e7	1.60e7	1.87e7	inactive
17	CG15631	DRSC00466	3.10e7	3.34e7	1.52e7	1.52e7	inactive
18	Art7	DRSC04588	4.84e7	5.23e7	2.46e7	2.32e7	inactive
19	CG6345	DRSC16024	2.97e7	3.39e7	1.42e7	1.76e7	inactive
20	CG15083	DRSC06514	4.39e7	3.84e7	1.75e7	2.00e7	inactive
21	CG42449	DRSC18084	3.54e7	7.62e7	1.85e7	3.82e7	inactive
22	Nos	DRSC03381	5.82e7		2.58e7		inactive
23	CG9377	DRSC03217	4.01e7		2.14e7		inactive
24	CG13404	DRSC19536	2.80e7	2.84e7	1.46e7	1.16e7	inactive
25	CR42532	DRSC06713	3.51e7	4.98e7	1.80e7	2.05e7	inactive
26	CG9706	DRSC11095	2.44e7	3.20e7	1.35e7	2.43e7	inactive
27	CG5895	DRSC10554	4.49e7	5.47e7	1.87e7	1.98e7	inactive
28	CG33322	DRSC03204	4.58e7	5.61e7	2.06e7	2.29e7	inactive
29	cv-c	DRSC14969	2.51e7	3.52e7	1.24e7	5.10e7	inactive
30	cv-c	DRSC14970	2.19e7	2.53e7	1.18e7	4.22e7	inactive
31	cv-c	DRSC14971	2.15e7	2.61e7	1.15e7	3.95e7	inactive
32	cv-c	DRSC14972	2.46e7	6.11e7	1.27e7	9.16e7	inactive
33	cv-c	DRSC14973	2.60e7	4.91e7	1.35e7	7.41e7	inactive
34	cv-c	DRSC16428	2.63e7	3.07e7	1.35e7	4.85e7	inactive
35	cv-c	DRSC23199	4.22e7	2.59e7	2.09e7	1.29e7	inactive
36	CG14247	DRSC14742	2.60e7	4.99e7	1.33e7	2.05e7	inactive
37	egg	DRSC04119	3.84e7		1.90e7		inactive
38	egg	DRSC22534	4.12e7	3.22e7	2.04e7	1.25e7	inactive
39	CG33271	DRSC10583	3.42e7	4.94e7	2.08e7	2.65e7	inactive
40	CG11474	DRSC04112	3.24e7		1.65e7		inactive
41	RpLP0-like	DRSC06424	4.37e7	3.71e7	1.97e7	1.82e7	inactive
42	CR15821	DRSC08481	2.82e7	3.28e7	1.47e7	1.49e7	inactive
43	tst + CG10375	DRSC14237	4.27e7	3.81e7	2.08e7	1.75e7	inactive
44	Rbp	DRSC15724	9.93e6	1.25e7	6.87e6	4.27e7	inactive
45	Rbp	DRSC15726	2.20e7	3.51e7	1.00e7	4.41e7	inactive
46	fd3F + CR42499	DRSC18160	1.99e7	2.60e7	1.06e7	1.22e7	inactive
47	fd3F + CR42499	DRSC18161	2.43e7	2.53e7	1.22e7	1.17e7	inactive
48	robl37BC	DRSC02472	6.81e7	4.05e7	3.23e7	1.69e7	inactive
49	Ts	DRSC00795	2.05e7	2.05e7	1.10e7	9.95e6	inactive
50	Ts	DRSC22168	2.59e7	4.98e7	1.47e7	2.70e7	inactive
51	Syn2	DRSC06902	4.78e7	5.38e7	2.26e7	2.56e7	inactive
52	CG10359	DRSC08156	4.67e7	3.66e7	2.87e7	1.61e7	inactive
53	Rab7	DRSC16810	2.14e7	2.41e7	1.25e7	1.32e7	inactive
54	CG33259	DRSC10854	3.78e7	5.84e7	1.90e7	2.37e7	inactive
55	mthl10	DRSC08504	3.60e7	3.89e7	1.71e7	1.68e7	inactive
56	mthl10	DRSC08505	3.57e7	4.55e7	1.79e7	1.97e7	inactive
57	Exo70	DRSC10774	2.30e7	3.43e7	1.04e7	1.40e7	inactive
58	CG16790	DRSC15156	3.60e7	2.92e7	1.78e7	1.59e7	inactive

Just “resting calcium signal, replicate 2 (fluorescence units)” (2 entries from above):
Sdb [DRSC06273]: 1.66e7
Sdb [DRSC07155]: 1.70e7
